# Measured values: US11439707B2, “Hypocrellin derivative substituted both in a peri-position and in 2-position by amino, preparation method, and application thereof” (priority 2017, dated 2022)
# System: Hela cell
# Test: confocal fluorescence imaging
# Format: cell-based
# Conditions: FIG. 10
row,Structure (SMILES),cell entry and localisation
1,COCCOCCOCCOCCOCCOCCOCCC(=O)OCCOCCNc1c2c3c4c(c(OC)c(=O)c5c(O)cc(OC)c(c6c(OC)cc(NCCOCCOC(=O)CCOCCOCCOCCOCCOCCOCCOC)c(c1=O)c63)c54)C(C(C)=O)C(C)=C2 (stereo not drawn) [HB-1c-PEG6],able to enter a lysosome of a Hela cell
2,COc1c2c3c4c(c(NCCOCCO)c(=O)c5c(NCCOCCO)cc(OC)c(c6c(OC)cc(O)c(c1=O)c63)c54)C=C(C)C2C(C)=O (stereo not drawn) [HB-1c],able to enter a lysosome of a Hela cell
3,COc1c(O)c2c(=O)cc(OC)c3c4c(OC)cc(=O)c5c(NCCC(=O)O)c(NCCC(=O)O)c6c(c(c1C(C(C)=O)C(C)=C6)c23)c54 (stereo not drawn) [HB-10a],able to enter a lysosome of a Hela cell

# Some compounds share one wording; it may come from a single statement.
